{"source": "PubChem BioAssay AID504744 (Drosophila RNAi Screening Center, 2011)", "purpose": "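Uncover factors, including feedback loops, that control dAkt activation in fly cells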 (primary screen)", "system": "Drosophila Kc167 cells", "reagents": "long dsRNA against Drosophila genes, 250 ng dsRNA per well of a 384-well plate", "duration": "3 days of knock-down, then overnight serum-free starvation before stimulation", "treatment": "bovine insulin at 387 nM for 10 minutes after 12 h without serum", "detection": "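In-cell antibody fluorescence for phospho-dAkt in each well over DNA-dye signal, with log2 residuals expressed as z-scores adjusted for cell count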", "active means": "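Hit in the insulin screen when the two-replicate mean z-score is more extreme than plus or minus 2.5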", "note": "The deposit covers about 23,000 reagents; this is a random part of those that have a named target and a result. Of all reagents, 98 (0.43%) are marked active. 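Only hit calls are given; the phospho-dAkt signals, z-scores and hit direction were not deposited.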"}
{"gene": "Ldaf1 (Lipid droplet assembly factor 1)", "amplicon": "DRSC17963", "Outcome": "inactive"}
{"gene": "Kots (Kotsubu)", "amplicon": "DRSC16581", "Outcome": "inactive"}
{"gene": "Alp13 (Alkaline phosphatase 13)", "amplicon": "DRSC15781", "Outcome": "inactive"}
{"gene": "Hr96 (Hormone receptor-like in 96)", "amplicon": "DRSC16707", "Outcome": "inactive"}
{"gene": "salto", "amplicon": "DRSC06291", "Outcome": "inactive"}
{"gene": "mRpS5 (mitochondrial ribosomal protein S5)", "amplicon": "DRSC21380", "Outcome": "inactive"}
{"gene": "Cpr47Ef (Cuticular protein 47Ef)", "amplicon": "DRSC06336", "Outcome": "inactive"}
{"gene": "Cpr47Ef (Cuticular protein 47Ef)", "amplicon": "DRSC22450", "Outcome": "inactive"}
{"gene": "Pngl (PNGase-like)", "amplicon": "DRSC04914", "Outcome": "inactive"}
{"gene": "B52", "amplicon": "DRSC14121", "Outcome": "inactive"}
{"gene": "Rbfox1 (RNA-binding Fox protein 1)", "amplicon": "DRSC09034", "Outcome": "inactive"}
{"gene": "Rbfox1 (RNA-binding Fox protein 1)", "amplicon": "DRSC10157", "Outcome": "inactive"}
{"gene": "Rbfox1 (RNA-binding Fox protein 1)", "amplicon": "DRSC10320", "Outcome": "inactive"}
{"gene": "Rbfox1 (RNA-binding Fox protein 1)", "amplicon": "DRSC21378", "Outcome": "inactive"}
{"gene": "TSG101 (Tumor susceptibility gene 101)", "amplicon": "DRSC11098", "Outcome": "inactive"}
{"gene": "Pcd (pterin-4a-carbinolamine dehydratase)", "amplicon": "DRSC16785", "Outcome": "inactive"}
{"gene": "Alk (Anaplastic lymphoma kinase)", "amplicon": "DRSC05918", "Outcome": "inactive"}
{"gene": "Tailor", "amplicon": "DRSC12526", "Outcome": "inactive"}
{"gene": "ey (eyeless)", "amplicon": "DRSC17173", "Outcome": "inactive"}
{"gene": "Rab1", "amplicon": "DRSC16808", "Outcome": "inactive"}
{"gene": "CG10907", "amplicon": "DRSC09804", "Outcome": "inactive"}
{"gene": "Atg1 (Autophagy-related 1)", "amplicon": "DRSC09809", "Outcome": "inactive"}
{"gene": "Atg1 (Autophagy-related 1)", "amplicon": "DRSC09810", "Outcome": "inactive"}
{"gene": "CG16717", "amplicon": "DRSC10221", "Outcome": "inactive"}

Copied from the list.
Entry for TSG101 (Tumor susceptibility gene 101) [DRSC11098] under “Outcome”: inactive
Under “Outcome”, Kots (Kotsubu) [DRSC16581] is entered as inactive
For “Outcome”, Alk (Anaplastic lymphoma kinase) [DRSC05918] shows inactive
Result for salto [DRSC06291] under “Outcome”: inactive
Rbfox1 (RNA-binding Fox protein 1) [DRSC10157], Outcome = inactive
Pngl (PNGase-like) [DRSC04914], Outcome → inactive

The listing continues.
{"gene": "eEF1gamma (eukaryotic translation elongation factor 1 gamma)", "amplicon": "DRSC16659", "Outcome": "inactive"}
{"gene": "ex (expanded)", "amplicon": "DRSC00817", "Outcome": "inactive"}
{"gene": "gce (germ cell-expressed bHLH-PAS)", "amplicon": "DRSC19613", "Outcome": "inactive"}
{"gene": "gce (germ cell-expressed bHLH-PAS)", "amplicon": "DRSC19974", "Outcome": "inactive"}
{"gene": "Amt (Ammonium transporter)", "amplicon": "DRSC16055", "Outcome": "inactive"}
{"gene": "CG6996", "amplicon": "DRSC10758", "Outcome": "inactive"}
{"gene": "CG2875", "amplicon": "DRSC18231", "Outcome": "inactive"}
{"gene": "veli", "amplicon": "DRSC16276", "Outcome": "inactive"}
{"gene": "SKIP (Shal K[+] channel interacting protein)", "amplicon": "DRSC14713", "Outcome": "inactive"}
{"gene": "SKIP (Shal K[+] channel interacting protein)", "amplicon": "DRSC14714", "Outcome": "inactive"}
{"gene": "SKIP (Shal K[+] channel interacting protein)", "amplicon": "DRSC15864", "Outcome": "inactive"}
{"gene": "SKIP (Shal K[+] channel interacting protein)", "amplicon": "DRSC16195", "Outcome": "inactive"}
{"gene": "SKIP (Shal K[+] channel interacting protein)", "amplicon": "DRSC16196", "Outcome": "inactive"}
{"gene": "mRpL3 (mitochondrial ribosomal protein L3)", "amplicon": "DRSC20100", "Outcome": "inactive"}
{"gene": "mav (maverick)", "amplicon": "DRSC17149", "Outcome": "inactive"}
{"gene": "CG34126", "amplicon": "DRSC02726", "Outcome": "inactive"}
{"gene": "CG34126", "amplicon": "DRSC22079", "Outcome": "inactive"}
{"gene": "kek3 (kekkon 3)", "amplicon": "DRSC03553", "Outcome": "inactive"}
{"gene": "kek3 (kekkon 3)", "amplicon": "DRSC22830", "Outcome": "inactive"}
{"gene": "Oda (Ornithine decarboxylase antizyme)", "amplicon": "DRSC07626", "Outcome": "inactive"}
{"gene": "CG34049", "amplicon": "DRSC00104", "Outcome": "inactive"}
{"gene": "Toll-9", "amplicon": "DRSC11776", "Outcome": "inactive"}
{"gene": "CG1233", "amplicon": "DRSC08269", "Outcome": "inactive"}
{"gene": "betaTub65B (beta-Tubulin at 65B)", "amplicon": "DRSC11393", "Outcome": "inactive"}
{"gene": "ZnT49B (Zinc transporter 49B)", "amplicon": "DRSC07225", "Outcome": "inactive"}
{"gene": "Prp3 (Precursor RNA processing 3)", "amplicon": "DRSC10912", "Outcome": "inactive"}
{"gene": "px (plexus)", "amplicon": "DRSC04708", "Outcome": "inactive"}
{"gene": "CG7702", "amplicon": "DRSC16293", "Outcome": "inactive"}
{"gene": "Stim (Stromal interaction molecule)", "amplicon": "DRSC20158", "Outcome": "inactive"}
{"gene": "Fcp1 (TFIIF-interacting CTD phosphatase)", "amplicon": "DRSC04121", "Outcome": "inactive"}
{"gene": "CG11583", "amplicon": "DRSC08202", "Outcome": "inactive"}
{"gene": "Mlh1", "amplicon": "DRSC07473", "Outcome": "inactive"}
{"gene": "CG31344", "amplicon": "DRSC16069", "Outcome": "inactive"}
{"gene": "CG3706", "amplicon": "DRSC18649", "Outcome": "inactive"}
{"gene": "CG14883", "amplicon": "DRSC15007", "Outcome": "inactive"}
{"gene": "qkr54B (quaking related 54B)", "amplicon": "DRSC07670", "Outcome": "inactive"}
{"gene": "sut3 (sugar transporter 3)", "amplicon": "DRSC07702", "Outcome": "inactive"}
{"gene": "Vps13B (Vacuolar protein sorting 13B)", "amplicon": "DRSC15060", "Outcome": "inactive"}
{"gene": "pont (pontin)", "amplicon": "DRSC17029", "Outcome": "inactive"}
{"gene": "grn (grain)", "amplicon": "DRSC12666", "Outcome": "inactive"}
{"gene": "grn (grain)", "amplicon": "DRSC16961", "Outcome": "inactive"}
{"gene": "Mob4 (MOB kinase activator 4)", "amplicon": "DRSC04993", "Outcome": "inactive"}
{"gene": "RhoGAP1A (Rho GTPase activating protein at 1A)", "amplicon": "DRSC20649", "Outcome": "inactive"}
{"gene": "RhoGAP1A (Rho GTPase activating protein at 1A)", "amplicon": "DRSC20651", "Outcome": "inactive"}
{"gene": "CG6912", "amplicon": "DRSC16132", "Outcome": "inactive"}
{"gene": "CG5897", "amplicon": "DRSC10555", "Outcome": "inactive"}
{"gene": "CG8237", "amplicon": "DRSC07119", "Outcome": "inactive"}
{"gene": "CG32081", "amplicon": "DRSC09861", "Outcome": "inactive"}
{"gene": "CG13998", "amplicon": "DRSC02330", "Outcome": "inactive"}
